Experimental data taken from patent US20050239724A1, “Skin penetration enhancing components” (Wyeth, priority 1997, published 2005).
At least one compound was matched to its structure with a doubt left.

Assays:
[1] = system: keratinocyte proliferation; conditions: in vitro experiments; cited from earlier work
chronic plaque psoriasis = assay: Double blind left-right comparison of topical sirolimus in chronic plaque psoriasis (Example 3); format: in vivo, human; conditions: final comparison, active vs vehicle control
Experimental: A double blind, left-right comparison of the effect of applying topical sirolimus in formulations as described in Examples 1 and 2, to 24 patients with chronic (over three months) plaque psoriasis was conducted. (22 out of the 24 patients were eventually analysed.) A single target plaque was treated for the first 6 weeks with the lower potency formulation of Example 2. After this the active treatment was increased to the higher potency formulation of Example 1 for 6 weeks unless a clear improvement on one side had already occurred.
Subjects were all aged over 18 years, were able to apply creams and had no other significant medical problems. […]
Assessments were done at weeks 0, 2, 4 and 6 on the low potency treatment and at 8, 10 and 12 on the higher dose formulation, provided there were no signs or laboratory evidence of toxicity. […] Biopsies were not done if an adverse event such as a reaction to the application occurred as this would influence the measures being assessed.
The lesions were also assessed at fortnightly intervals with subjective scoring on a scale of 0-8 for erythema, thickening, and scaling. […] These included pulsed A scan ultrasound measurement of lesion thickness and erythema measured with a reflectance erythema metre, both were averaged over 5 areas in each psoriatic lesion and were validated using a previous study which was performed using betamethasome as a reference. […]

CO[C@H]1C[C@@H]2CC[C@@H](C)[C@@](O)(O2)C(=O)C(=O)N2CCCC[C@H]2C(=O)O[C@H]([C@H](C)C[C@@H]2CC[C@@H](O)[C@H](OC)C2)CC(=O)[C@H](C)/C=C(\C)[C@@H](O)[C@@H](OC)C(=O)[C@H](C)C[C@H](C)/C=C/C=C/C=C/1C [sirolimus]
concentrations at which the inhibitory effect on keratinocyte proliferation takes place [1]: 3 to 10 µg/mL
erythema measurements, active vs placebo (chronic plaque psoriasis): not significantly different
ultrasound recordings, active vs placebo (chronic plaque psoriasis): not significantly different
